Consider four substances from patent publication US7335645B2 (Probiodrug AG, priority 1999, dated 2008).

The nature of this data set: general procedure: solution-phase peptide synthesis. As to conditions: TFA salt.

As to H-Glu(Gly3)Thia *TFA, the step yield (late stage modification step) is given as 94%.
Boc-Glu(Gly3)-Thia: the step yield (coupling step) was found to be 49%.
In the case of Boc-Glu(Gly5)-Thia, the step yield (coupling step) is reported as 86%.
For H-Glu(Gly5)Thia *TFA, under “late stage modification step”, the step yield is 98%.
